Values of other authors in patent US20200392223A1, “IL-17A ACTIVITY INHIBITOR AND USE THEREOF” (TOKAI UNIVERSITY EDUCATIONAL SYSTEM, priority 2018, published 2020).
For at least one compound, name, drawing or mass did not settle the structure.

Legend:
IL-17RA = biological target: T1, IL-17RA (Homo sapiens, UniProt Q96F46); settings: cited from earlier work
T1 sequence (Q96F46 33-866): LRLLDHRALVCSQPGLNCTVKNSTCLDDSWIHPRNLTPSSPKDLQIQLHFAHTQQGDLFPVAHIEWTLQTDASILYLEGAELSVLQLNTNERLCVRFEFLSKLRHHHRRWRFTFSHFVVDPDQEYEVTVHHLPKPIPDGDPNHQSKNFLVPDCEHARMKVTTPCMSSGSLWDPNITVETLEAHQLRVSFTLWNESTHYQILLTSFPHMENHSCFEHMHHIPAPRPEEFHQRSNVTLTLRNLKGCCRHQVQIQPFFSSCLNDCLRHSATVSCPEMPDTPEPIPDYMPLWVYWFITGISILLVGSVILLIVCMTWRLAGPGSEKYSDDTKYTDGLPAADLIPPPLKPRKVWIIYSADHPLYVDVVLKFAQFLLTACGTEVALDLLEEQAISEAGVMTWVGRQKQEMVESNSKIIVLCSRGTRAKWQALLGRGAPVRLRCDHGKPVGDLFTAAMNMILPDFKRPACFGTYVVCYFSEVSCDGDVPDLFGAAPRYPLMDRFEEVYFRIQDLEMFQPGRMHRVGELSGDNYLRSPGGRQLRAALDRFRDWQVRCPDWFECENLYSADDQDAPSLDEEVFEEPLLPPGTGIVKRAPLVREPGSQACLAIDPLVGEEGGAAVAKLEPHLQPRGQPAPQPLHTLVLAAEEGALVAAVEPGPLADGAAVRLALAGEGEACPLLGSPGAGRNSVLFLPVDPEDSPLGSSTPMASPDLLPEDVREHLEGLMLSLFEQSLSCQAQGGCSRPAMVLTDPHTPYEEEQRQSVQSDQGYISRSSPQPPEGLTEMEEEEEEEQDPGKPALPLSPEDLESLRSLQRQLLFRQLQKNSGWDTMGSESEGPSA

[1] = system: Th17 cell-dependent inflammation; settings: mouse; cited from earlier work
[2] = system: IL-17A-dependent skin hyperplasia; settings: mouse; cited from earlier work
airway inflammation = settings: mouse model with steroid-resistant severe asthma; cited from earlier work
IL-17A = settings: human or mouse cells; cited from earlier work

In the case of Oc1cc(O)c2cc(O)c(-c3ccc(O)c(O)c3)[o+]c2c1 [A18, cyanidin], the “binding of IL-17A to IL-17RA” value (IL-17RA) is given as “competitively inhibited”, the Th17 cell-dependent inflammation [1] is given as “suppressed” and the IL-17A-dependent skin hyperplasia [2] is given as “suppressed”. For the same compound, the airway inflammation (airway inflammation) was “alleviated” and the “expression of genes induced by IL-17A” value (IL-17A) was “inhibited”.
